Laboratory results published in patent publication US8329429B2, “Method of enhancing recombinant protein production” (Induce Biologics Inc., priority 2007, dated 2012).

B1: hBMP-2: wild type human BMP-2 secreted by cells transfected with construct 2334 (SEQ ID NO: 2) (protein, listed as Homo sapiens)
chain: MVAGTRCLLALLLPQVLLGGAAGLVPELGRRKFAAASSGRPSSQPSDEVLSEFELRLLSMFGLKQRPTPSRDAVVPPYMLDLYRRHSGQPGSPAPDHRLERAASRANTVRSFHHEESLEELPETSGKTTRRFFFNLSSIPTEEFITSAELQVFREQMQDALGNNSSFHHRINIYEIIKPATANSKFPVTRLLDTRLVNQNASRWESFDVTPAVMRWTAQGHANHGFVVEVAHLEEKQGVSKRHVRISRSLHQDEHSWSQIRPLLVTFGHDGKGHPLHKREKRQAKHKQRKRLKSSCKRHPLYVDFSDVGWNDWIVAPPGYHAFYCHGECPFPLADHLNSTNHAIVQTLVNSVNSKIPKACCVPTELSAISMLYLDENEKVVLKNYQDMVVEGCGCR
B2: S1-BMP-2: proBMP-2 with S1 furin site REKR replaced by linker TNGIEGRALDP (SEQ ID NO: 16) (protein)
chain: LVPELGRRKFAAASSGRPSSQPSDEVLSEFELRLLSMFGLKQRPTPSRDAVVPPYMLDLYRRHSGQPGSPAPDHRLERAASRANTVRSFHHEESLEELPETSGKTTRRFFFNLSSIPTEEFITSAELQVFREQMQDALGNNSSFHHRINIYEIIKPATANSKFPVTRLLDTRLVNQNASRWESFDVTPAVMRWTAQGHANHGFVVEVAHLEEKQGVSKRHVRISRSLHQDEHSWSQIRPLLVTFGHDGKGHPLHKTNGIEGRALDPQAKHKQRKRLKSSCKRHPLYVDFSDVGWNDWIVAPPGYHAFYCHGECPFPLADHLNSTNHAIVQTLVNSVNSKIPKACCVPTELSAISMLYLDENEKVVLKNYQDMVVEGCGCR

Experiments:
[1] = Quantikine hBMP-2 ELISA of conditioned medium from transfected cell lines; conditions: hBMP-2 CHO stable transfectants; depends on seeding density, incubation time, medium volume
[2] = dot blot assay for BMP-2 in conditioned medium

Row | Molecule | amount of mature hBMP-2 in the medium [1] [ng/mL] | BMP-2 Dot Blot ([2]; construct 2340, 293 cells) | BMP-2 Dot Blot ([2]; construct 2340, COS cells) | BMP-2 Dot Blot ([2]; construct 2341, 293 cells) | BMP-2 Dot Blot ([2]; construct 2341, COS cells)
1 | B1 | 20 to 100 | – | – | – | –
2 | B2 | – | 500+ | 500+ | 5000+ | 5000+
